Values are the deposited “Percent Effect”, in %. How 0% and 100% were set is not recorded. Most values in the screen are low, and negative values occur. This is an unselected part of the compounds tested.

By UniProt entry, the sequences of proteins in these tests, tags left out. Residues count along the entry.
UniProt P9WFT3, whole entry: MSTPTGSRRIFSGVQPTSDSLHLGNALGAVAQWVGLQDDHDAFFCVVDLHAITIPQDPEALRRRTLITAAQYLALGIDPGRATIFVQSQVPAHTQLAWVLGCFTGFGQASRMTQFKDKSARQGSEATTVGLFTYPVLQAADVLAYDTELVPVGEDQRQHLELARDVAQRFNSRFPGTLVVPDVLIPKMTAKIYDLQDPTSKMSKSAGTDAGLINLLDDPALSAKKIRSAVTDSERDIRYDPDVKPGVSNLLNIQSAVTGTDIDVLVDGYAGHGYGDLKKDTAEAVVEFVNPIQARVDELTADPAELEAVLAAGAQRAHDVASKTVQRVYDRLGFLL
UniProt Q4DA54, 1-478: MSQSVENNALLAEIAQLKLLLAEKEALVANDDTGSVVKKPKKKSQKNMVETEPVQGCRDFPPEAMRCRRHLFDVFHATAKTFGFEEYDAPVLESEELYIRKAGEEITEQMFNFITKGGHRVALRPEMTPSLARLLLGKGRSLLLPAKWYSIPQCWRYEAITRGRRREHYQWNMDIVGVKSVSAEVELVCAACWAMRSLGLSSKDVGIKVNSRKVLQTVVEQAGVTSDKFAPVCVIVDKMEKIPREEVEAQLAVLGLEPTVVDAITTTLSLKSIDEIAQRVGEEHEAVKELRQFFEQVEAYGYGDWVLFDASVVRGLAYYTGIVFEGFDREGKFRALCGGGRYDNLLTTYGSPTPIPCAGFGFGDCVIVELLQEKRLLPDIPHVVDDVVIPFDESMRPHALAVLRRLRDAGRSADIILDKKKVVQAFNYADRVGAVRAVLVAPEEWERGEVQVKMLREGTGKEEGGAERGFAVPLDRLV
UniProt Q8IDJ8, 1-583: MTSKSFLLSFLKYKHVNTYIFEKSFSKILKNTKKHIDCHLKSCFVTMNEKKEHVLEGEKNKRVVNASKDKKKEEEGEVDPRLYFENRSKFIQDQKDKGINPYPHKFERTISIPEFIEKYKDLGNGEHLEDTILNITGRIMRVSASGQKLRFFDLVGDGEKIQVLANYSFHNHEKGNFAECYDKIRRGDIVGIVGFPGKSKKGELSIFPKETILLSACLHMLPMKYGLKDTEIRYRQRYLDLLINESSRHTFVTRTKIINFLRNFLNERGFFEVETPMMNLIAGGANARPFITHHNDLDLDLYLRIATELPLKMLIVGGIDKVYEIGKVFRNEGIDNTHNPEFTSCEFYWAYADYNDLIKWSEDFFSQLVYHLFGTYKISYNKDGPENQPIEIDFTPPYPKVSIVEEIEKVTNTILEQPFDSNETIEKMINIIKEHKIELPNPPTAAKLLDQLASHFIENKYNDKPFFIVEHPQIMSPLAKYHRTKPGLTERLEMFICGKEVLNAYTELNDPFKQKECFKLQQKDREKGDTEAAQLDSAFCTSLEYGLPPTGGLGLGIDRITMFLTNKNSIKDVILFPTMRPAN
UniProt P9WNZ1, whole entry: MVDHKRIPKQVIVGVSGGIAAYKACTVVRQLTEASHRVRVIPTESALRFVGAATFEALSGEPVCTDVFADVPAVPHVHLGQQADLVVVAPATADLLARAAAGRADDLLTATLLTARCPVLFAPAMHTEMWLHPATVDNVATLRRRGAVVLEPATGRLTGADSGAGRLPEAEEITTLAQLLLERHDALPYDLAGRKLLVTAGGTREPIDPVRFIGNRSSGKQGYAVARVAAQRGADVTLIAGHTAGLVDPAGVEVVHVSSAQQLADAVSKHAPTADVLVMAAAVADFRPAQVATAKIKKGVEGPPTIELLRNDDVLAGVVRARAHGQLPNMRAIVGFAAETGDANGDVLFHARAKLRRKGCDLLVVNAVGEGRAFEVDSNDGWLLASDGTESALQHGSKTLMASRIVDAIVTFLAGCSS
UniProt I6X8D2, whole entry: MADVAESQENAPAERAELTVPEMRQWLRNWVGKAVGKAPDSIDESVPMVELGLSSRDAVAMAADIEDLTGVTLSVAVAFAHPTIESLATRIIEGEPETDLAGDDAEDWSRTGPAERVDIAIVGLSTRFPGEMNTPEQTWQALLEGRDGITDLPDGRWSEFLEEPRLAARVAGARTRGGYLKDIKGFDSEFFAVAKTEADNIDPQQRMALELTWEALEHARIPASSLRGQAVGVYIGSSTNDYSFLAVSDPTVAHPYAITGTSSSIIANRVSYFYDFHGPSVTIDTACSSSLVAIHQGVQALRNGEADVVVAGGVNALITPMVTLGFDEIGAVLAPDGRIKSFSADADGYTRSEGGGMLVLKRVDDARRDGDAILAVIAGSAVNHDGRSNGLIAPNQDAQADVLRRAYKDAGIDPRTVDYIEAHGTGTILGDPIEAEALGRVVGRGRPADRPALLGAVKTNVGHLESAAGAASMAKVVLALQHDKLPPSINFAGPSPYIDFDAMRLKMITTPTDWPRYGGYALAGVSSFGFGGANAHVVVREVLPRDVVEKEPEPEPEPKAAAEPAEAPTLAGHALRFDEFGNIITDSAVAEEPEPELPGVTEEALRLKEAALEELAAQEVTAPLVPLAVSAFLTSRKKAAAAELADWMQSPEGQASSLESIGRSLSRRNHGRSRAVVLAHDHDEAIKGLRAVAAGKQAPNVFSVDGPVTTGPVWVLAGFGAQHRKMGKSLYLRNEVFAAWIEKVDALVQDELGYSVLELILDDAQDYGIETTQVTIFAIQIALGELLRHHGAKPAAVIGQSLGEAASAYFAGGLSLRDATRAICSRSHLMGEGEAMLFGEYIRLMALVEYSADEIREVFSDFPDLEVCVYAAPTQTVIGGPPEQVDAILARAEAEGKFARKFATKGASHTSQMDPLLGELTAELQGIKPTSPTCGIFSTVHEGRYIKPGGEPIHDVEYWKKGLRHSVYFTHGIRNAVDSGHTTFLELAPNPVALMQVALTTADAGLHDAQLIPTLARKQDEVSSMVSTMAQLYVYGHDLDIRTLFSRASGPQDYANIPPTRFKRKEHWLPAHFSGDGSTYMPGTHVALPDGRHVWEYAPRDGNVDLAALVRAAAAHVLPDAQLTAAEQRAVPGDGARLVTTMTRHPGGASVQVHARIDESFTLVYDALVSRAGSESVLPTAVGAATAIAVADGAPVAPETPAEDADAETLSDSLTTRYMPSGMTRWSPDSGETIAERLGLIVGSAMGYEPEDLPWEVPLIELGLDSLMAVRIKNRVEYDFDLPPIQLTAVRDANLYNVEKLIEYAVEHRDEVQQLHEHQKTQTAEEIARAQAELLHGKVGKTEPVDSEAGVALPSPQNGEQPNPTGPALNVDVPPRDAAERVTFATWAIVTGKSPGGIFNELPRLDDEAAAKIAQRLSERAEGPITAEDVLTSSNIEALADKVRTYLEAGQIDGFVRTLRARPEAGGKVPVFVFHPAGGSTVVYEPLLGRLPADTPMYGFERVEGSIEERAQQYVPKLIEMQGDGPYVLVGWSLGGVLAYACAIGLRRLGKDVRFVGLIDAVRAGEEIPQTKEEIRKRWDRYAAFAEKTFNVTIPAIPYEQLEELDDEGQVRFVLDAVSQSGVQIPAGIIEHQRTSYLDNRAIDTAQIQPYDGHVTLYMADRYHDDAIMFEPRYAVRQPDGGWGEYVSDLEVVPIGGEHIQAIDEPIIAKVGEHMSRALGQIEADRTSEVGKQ

A: 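Tryptophan-tRNA ligase, Mycobacterium tuberculosis (UniProt P9WFT3). Enzyme assay of tryptophanyl-tRNA synthetase; the read-out is not stated. Concentration: 10 µM. Higher most likely means stronger inhibition; the record gives no direction and few retests gave an IC50. About 65,000 compounds were tested under these conditions; 0.098% (about 64) showed 50% or more at least once.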
B: 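Enzyme assay of histidyl-tRNA synthetase; the read-out is not stated. Target: Histidine-tRNA ligase, Trypanosoma cruzi CL Brener (UniProt Q4DA54). Concentration: 30 µM. The record gives no direction; compounds that gave an IC50 in retests scored well above the rest, so higher reads as stronger inhibition. Of about 69,000 compounds tested this way, about 31 (0.045%) reached 50% or more in at least one test.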
C: 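Enzyme assay of the cytosolic lysyl-tRNA synthetase in 384-well plates, read by luminescence. Target: Lysine-tRNA ligase, Plasmodium falciparum 3D7 (UniProt Q8IDJ8). Tested at 30 µM. Direction is inferred from only a few compounds that gave an IC50; most scored high, so higher reads as stronger inhibition. About 69,000 compounds were tested under these conditions; 0.071% (about 49) showed 50% or more at least once.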
D: 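Coenzyme A biosynthesis protein CoaBC, Mycobacterium tuberculosis (UniProt P9WNZ1). Enzyme assay of CoaBC with a phosphate dye (Biomol Green) read at 650 nm. Concentration: 30 µM. Direction is inferred from only a few compounds that gave an IC50; most scored high, so higher reads as stronger inhibition. Most strong results did not repeat in a second test. About 67,000 compounds were tested under these conditions; 0.06% (about 40) showed 50% or more at least once.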
E: 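Polyketide synthase Pks13, Mycobacterium tuberculosis (UniProt I6X8D2). Enzyme assay of the thioesterase domain of polyketide synthase 13; the read-out is not stated. Compounds at 30 µM. The record gives no direction; the compounds picked for IC50 retests had high values, so higher reads as stronger inhibition. Size under these conditions: about 67,000 compounds, about 300 of them at 50% or above in at least one test.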
F: 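Cell assay of Leishmania donovani living inside macrophages; the read-out is not stated. Concentration: 30 µM. Direction is inferred from retests: higher values go with stronger inhibition. Size under these conditions: about 69,000 compounds, about 1,000 of them at 50% or above in at least one test.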

Result for CCNc1cc2c(nn1)CCN(C(=O)Cc1ccc(C)nc1)C2 was A: -6.417%; B: 7.918%; C: 0.5555%; D: 0.5263%; E: -3.785%; F: 1.942%. COCc1ncc(CN2CCC3(CCNCC3)CC2)cn1 read A: 1.519%; B: 2.646%; C: 0.4821%; D: 7.356%; E: -6.196%; F: 1.907%. Result for CCCc1nc(C)c(C(=O)NCc2ccc(C)n2C)s1 was A: 0.9336%; B: 15.52%; C: 10.32%; D: 7.269%; E: 2.648%; F: 0.9012%. For Cc1ccc(C)c(OCCN2CCC(N3CCNC3=O)CC2)c1 the result was A: -2.818%; B: 0.3831%; C: 0.847%; D: 3.035%; E: -13.76%; F: 43.87%. For O=C(O)C(F)(F)F.[H][C@@]12CN(CC)CCO[C@]1([H])CN(C(=O)c1cocn1)C2 the result was F: 0.1261%.

Cc1cc(=O)[nH]c(-n2nc(C)c(CCC(=O)NCC(C)C)c2C)n1 gave A: 7.19%; B: 4.523%; C: 1.082%; D: 2.046%; E: -7.353%; F: 15.57%. Result for Cn1cc(CCCNC(=O)NC2CCN(CC(F)(F)F)C2=O)cn1 (stereo unspecified) was A: -4.335%; B: 9.091%; C: 3.448%; D: 3.043%; E: -13.61%; F: 23.08%. Result for Cc1cc(NCCN)nc(-c2ccccc2O)n1 was A: -1.537%; B: -3.627%; C: -5.721%; D: 8.333%; E: 10.52%; F: 39.88%. CCCOc1cccc(NS(=O)(=O)c2cc(C(=O)O)cs2)c1 read A: -5.936%; B: 2.5%; C: -2.077%; D: 2.316%; E: 40.75%; F: -70.41%. With [H][C@@]12COC[C@]1(COCc1cccnc1)CN(C(=O)c1cc(C)on1)C2 the screen gave F: -7.963%.

For CCOc1ccc2nc(CN3CCOC(CN)C3)ccc2c1 (stereo unspecified) the result was A: 0.09099%; B: 2.128%; C: 0.9888%; D: -13.25%; E: 70.33%; F: 0.788%. With [H][C@]12CN(C(=O)c3cccnc3)CCN1C(=O)N(Cc1ccc(F)cc1)C2 the screen gave F: -21.76%. O[C@@]1(CNCC2(Cn3cccn3)CC2)CCCN2CCCC[C@@H]21 gave A: -0.8961%; B: 3.017%; C: 1.666%; D: 1.901%; E: -37.71%. Result for Cc1cc2ccncc2n1CC1(O)CCN(C(=O)c2ccccn2)CC1 was A: -1.339%; B: 7.28%; C: -0.4976%; D: -4.369%; E: 1.241%; F: -9.469%. For Fc1cnc(N2CCO[C@H]3CN(CC4CCCC4)C[C@H]32)nc1 the result was A: -4.932%; B: -1.622%; C: -2.349%; D: 7.234%; E: -14.54%.

For Cc1csc(CCCNc2ccc(S(N)(=O)=O)cc2C#N)n1 the result was A: -2.311%; B: 6.433%; C: 5.382%; D: 1.515%; E: -8.406%; F: 22.71%. For CC(C)=CCCC(C)CN1CCC(n2cc(C(=O)NCCO)nn2)CC1 (stereo unspecified) the result was A: -3.601%; B: 5.291%; C: 4.078%; D: -1.775%; E: -19.05%; F: 15.09%. With Cc1nc2c(cc1C(=O)O)CCN(Cc1ccsc1)CC2 the screen gave A: -3.989%; B: 4.762%; C: 1.344%; D: -4.809%; E: -19.83%. For Cc1cnn(CC2CN(c3nc4ccccc4o3)CCO2)c1 (stereo unspecified) the result was A: 25.56%; B: 2.286%; C: -0.7103%; D: -0.5249%; E: -23.75%; F: -8.739%. For COc1ccc(Cl)cc1NCC(=O)N(Cc1cccnc1)C1CC1 the result was A: -0.6744%; B: 8.021%; C: 7.246%; D: -7.826%; E: -10.93%; F: 33%.

The first 2 entries again:

structure	A	B	C	D	E	F
CCNc1cc2c(nn1)CCN(C(=O)Cc1ccc(C)nc1)C2	-6.417%	7.918%	0.5555%	0.5263%	-3.785%	1.942%
COCc1ncc(CN2CCC3(CCNCC3)CC2)cn1	1.519%	2.646%	0.4821%	7.356%	-6.196%	1.907%

From ChEMBL document CHEMBL3988442, “University of Dundee, Small-Polar-MMV Screening Library” (2021).